Results from PubChem BioAssay AID1487 (National Center for Advancing Translational Sciences (NCATS), 2009).
This is one part of the list. The main result of the screen is listed elsewhere. These columns were measured beside it and carry no call. The list favours compounds with an active or inconclusive main result. The note in brackets gives the kind of curve behind each potency; many fits are weak.

Assay: qHTS Assay for Modulators of Lamin A Splicing
Details: HeLa LMNA splicing GFP/RFP minigene ratio, 48 h
How it was run: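 S3 HeLa cells stably expressing lamin A-EGFP splicing minigene plus DsRed2, 600 cells/well, 48 h compound exposure at 37C. Laser-scanning cytometry; analysed as GFP (500-530 nm)/RFP (575-640 nm) total intensity ratio; 0.5% DMSO vehicle.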

[1] = measured here: RFP viability control channel
[2] = measured here: GFP splicing reporter channel

SMILES	AC50 [1]	AC50 [2]
O=C(NCc1ccccc1Cl)C1CCC(CNc2nc(=S)[nH]c3ccccc23)CC1 (stereo unspecified)	0.501 µM [falling, full curve, poor fit]	–
CCn1ncc(/C=N\NC(=O)Cc2ccc([N+](=O)[O-])cc2)c1C	–	17.8 µM [rising, single point]
CC(C)C(=O)NC(=S)N1CCc2ccccc21	–	12.6 µM [rising, single point]
Clc1ccc(OCCn2c(-c3ccco3)nc3ccccc32)cc1	31.6 µM [rising, single point]	20 µM [rising, single point]
Cc1cccc(Cn2nnc3c2C(=O)c2ccccc2C3=O)c1	–	22.4 µM [falling, single point]
Cc1ccc2c(CN3CCN(S(=O)(=O)/C=C/c4ccccc4)CC3)cc(=O)oc2c1	0.631 µM [rising, partial curve]	–
O=C(COC(=O)CCC1CCCC1)Nc1ccccc1OC(F)F	17.8 µM [rising, single point]	–
CCN1CCCC1CN(Cc1cc2cc(C)cc(C)c2[nH]c1=O)C(=O)Nc1ccccc1OC (stereo unspecified)	11.2 µM [rising, partial curve, poor fit]	11.2 µM [rising, partial curve, poor fit]
COc1ccc(O)c(/C=N/NC(=O)CSc2nnc(C)n2-c2ccccc2)c1	–	35.5 µM [falling, single point]
CC1=Nc2ccccc2/C1=C\c1nc(-c2ccc(C(F)(F)F)cc2)oc1O	12.6 µM [falling, partial curve]	35.5 µM [falling, single point]
O=C(c1ccc(S(=O)(=O)Nc2ccc(F)cc2)cc1)N1CCN(C(=O)c2ccco2)CC1	10 µM [rising, partial curve]	–
Cc1c(N/N=C(\C#N)C(=O)c2ccc(Cl)cc2)c(=O)n(-c2ccccc2)n1C	8.91 µM [rising, single point]	–
O=C1c2ccccc2C(Nc2ccc(-c3nc4ccccc4[nH]3)cc2)N1Cc1ccco1 (stereo unspecified)	14.1 µM [rising, partial curve]	–
Cc1cc2[nH]c3ccccc3c2c(C)n1	35.5 µM [rising, single point]	–
Nc1cccc(S(=O)(=O)c2cccc(N)c2)c1	3.16 µM [falling, single point]	3.55 µM [falling, single point]
S=C(c1cn(Cc2ccc(Br)cc2)c2ccccc12)N1CCOCC1	35.5 µM [rising, single point]	–
CN(Cc1nc(-c2ccncc2)no1)S(=O)(=O)c1ccc(Cl)cc1	25.1 µM [rising, single point]	–
COc1ccc(S(=O)(=O)Nc2cccc(N(C)S(C)(=O)=O)c2)cc1C	11.2 µM [rising, partial curve]	–
COc1ccc(NC(=O)c2ccc(Br)o2)cc1	1.58 µM [falling, partial curve, poor fit]	1.58 µM [falling, partial curve]
Cc1c(Cl)cccc1NC(=O)c1cc(-c2ccccc2O)n[nH]1	20 µM [rising, single point]	–
CCCCC1(Cc2ccc([N+](=O)[O-])cc2)C(=O)N(c2ccccc2)N(c2ccccc2)C1=O	8.91 µM [rising, partial curve]	–
Cn1c(SCC(=O)Nc2ccccc2F)nc2c([nH]c3ccccc32)c1=O	–	35.5 µM [falling, partial curve]
CCOc1ccccc1C(=O)NC(C(=O)Nc1ccccc1N1CCOCC1)C(C)C (stereo unspecified)	35.5 µM [rising, single point]	35.5 µM [rising, single point]
Cc1occc1C(=O)Nc1ccc2ccccc2c1	17.8 µM [rising, single point]	12.6 µM [rising, single point]
O=C1CCC/C(=N/Nc2ccc(Cl)cc2)C1	4.47 µM [rising, full curve]	–
Cc1ccccc1C(=O)c1cccn1CC(=O)N1CCCCCC1	5.62 µM [falling, single point]	3.16 µM [falling, single point]
COc1cccc(N2CCN(CC(=O)Nc3nnc(-c4ccccc4)s3)CC2)c1	17.8 µM [rising, partial curve]	15.8 µM [rising, single point]
CSc1nnnn1CCn1nnnc1SC	0.02 µM [falling, full curve, poor fit]	–

SMILES	AC50 [1]	AC50 [2]
COc1cccc(OCc2cc(C3Nc4ccccc4C(=O)N3Cc3ccco3)ccc2OC)c1 (stereo unspecified)	10 µM [rising, partial curve]	–
COc1ccc(C(=O)O)cc1F	0.891 µM [falling, partial curve, poor fit]	5.01 µM [falling, partial curve, poor fit]
COc1cccc(/C=C/C(=O)OCC(=O)c2cc(C)n(CC3CCCO3)c2C)c1OC (stereo unspecified)	22.4 µM [rising, single point]	–
CC1=C(C(=O)OCc2ccccc2)C(c2cccnc2)n2nnnc2N1 (stereo unspecified)	15.8 µM [rising, single point]	14.1 µM [rising, partial curve]
Cc1cccc(-c2ncc(CN3CCCC(CO)(Cc4cccc(Cl)c4)C3)cn2)c1 (stereo unspecified)	7.94 µM [rising, partial curve, poor fit]	25.1 µM [rising, partial curve, poor fit]
COc1ccc(N/C=C(\C(C)=O)c2ccc(OC)c(OC)c2)cc1OC	6.31 µM [falling, full curve, poor fit]	0.447 µM [falling, partial curve, poor fit]
O=C1CC(C2CCCO2)C(=O)N1c1cccc(Cl)c1 (stereo unspecified)	2.82 µM [rising, single point]	3.16 µM [rising, single point]
CCOc1cccc(/C=N/NC(=S)Nc2cc(S(=O)(=O)N3CCOCC3)ccc2N2CCOCC2)c1O	17.8 µM [rising, partial curve]	1.41 µM [rising, full curve]
O=C(CCCn1c(=S)[nH]c2ccccc2c1=O)NC1CCCC1	5.62 µM [rising, single point]	–
CC(C)(C)Nc1nc(SCc2ccccc2)nc(N2CCOCC2)n1	25.1 µM [rising, single point]	–
COc1ccc(-c2nnc(SCc3nnc(-c4ccc(Cl)cc4)o3)n2-c2ccccc2)cc1	20 µM [rising, single point]	4.47 µM [rising, single point]
O=C(COn1nnc2ccc(C(F)(F)F)cc21)Nc1nnc(-c2ccccc2)o1	22.4 µM [rising, single point]	–
COc1ccc(S(=O)(=O)N2CCCOC2CNC(=O)C(=O)NCCCn2ccnc2)cc1 (stereo unspecified)	–	0.00316 µM [rising, full curve, poor fit]
CCc1ccc(NC(=S)NNC(=O)c2ccccc2OC(F)F)cc1	14.1 µM [rising, partial curve]	17.8 µM [rising, single point]
COC(=O)c1ccccc1NC(=O)C12CC3CC(C1)CC(n1cnc(Cl)n1)(C3)C2	25.1 µM [rising, single point]	–
CC(Oc1ccc2ccccc2c1)C(=O)NNC(=S)NC(=O)c1ccco1 (stereo unspecified)	10 µM [rising, partial curve, poor fit]	–
COc1cccc(-n2nnnc2SCC(=O)NCc2ccc3c(c2)OCO3)c1	2.82 µM [falling, partial curve]	3.16 µM [falling, partial curve, poor fit]
O=C(c1cccc([N+](=O)[O-])c1)N1CCN(c2ccc(Cl)cc2)CC1	14.1 µM [rising, partial curve]	10 µM [rising, partial curve, poor fit]
Cc1cccc(CCNC(=O)c2nc(-c3ccc(Cl)cc3)n3c2CCCCC3)c1	35.5 µM [rising, single point]	35.5 µM [rising, single point]
CCOC(=O)c1cc(CC)sc1NC(=O)CSc1nc2ccccc2c(=O)n1Cc1ccco1	–	0.224 µM [rising, partial curve]
CCN1CCN(c2ncc3c(n2)CCN(Cc2ccc(C)s2)C3)CC1	0.316 µM [rising, full curve, poor fit]	0.178 µM [rising, full curve, poor fit]
Cc1noc(C)c1S(=O)(=O)Nc1ccc(C(=O)N2CCN(c3cccc(Cl)c3)CC2)cc1	28.2 µM [rising, single point]	–
CCOc1ccc(C(=O)OCc2cc(=O)n3nc(C(C)C)sc3n2)cc1	–	0.112 µM [falling, full curve, poor fit]
Cc1ccc(NC(=O)C2CCN(S(=O)(=O)c3c(C)noc3C)CC2)cc1C	0.0224 µM [falling, full curve, poor fit]	–
COc1cccc(NC(=O)CN2C(=O)C3(SCC(=O)N3c3cc(C)cc(C)c3)c3ccccc32)c1 (stereo unspecified)	–	8.91 µM [falling, full curve, poor fit]
COC(=O)c1cc2oc(C)cc2n1Cc1ccc(Cl)cc1	–	2.51 µM [falling, full curve, poor fit]
O=C(OCCN1C(=O)c2cccc3c(N4CCOCC4)ccc(c23)C1=O)c1cc(Cl)cc(Cl)c1	5.62 µM [rising, single point]	–

At a glance, part of the list above:
SMILES	AC50 [1]	AC50 [2]
CCOc1ccccc1C(=O)NC(C(=O)Nc1ccccc1N1CCOCC1)C(C)C (stereo unspecified)	35.5 µM [rising, single point]	35.5 µM [rising, single point]
Cc1occc1C(=O)Nc1ccc2ccccc2c1	17.8 µM [rising, single point]	12.6 µM [rising, single point]
